In PMC9507969:
These are yes or no findings as the source states them, for the method shown. Binding seen in cells or lysates may run through a third protein. Some results given as binding are weak or reduced against the parent protein; the word gives no strength.

T1: Bud20-TAP (S. cerevisiae) (UniProt Q08004)
T1 sequence: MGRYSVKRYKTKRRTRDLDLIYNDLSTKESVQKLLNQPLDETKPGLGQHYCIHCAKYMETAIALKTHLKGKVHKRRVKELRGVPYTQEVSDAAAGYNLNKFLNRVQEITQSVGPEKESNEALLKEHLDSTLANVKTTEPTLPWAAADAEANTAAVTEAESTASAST


Target: T1, Bud20-TAP (S. cerevisiae)
Test: co-IP; affinity purification of pre-60S particles via Bud20-TAP from S. cerevisiae crm1^T539C (untreated, LmB and/or diazaborine; ARX1 or Δarx1 background), SDS-PAGE and western blotting

binding	Binder
binds	Nmd3 on the pre-60S particle (protein, UniProt P38861 1-518) MEFTPIDPHQHQNAATLLCCNCGTPIDGSTGLVMCYDCIKLTVDITQGIPREANISFCRNCERFLQPPGQWIRAELESRELLAICLRRLKGLTKVRLVDASFIWTEPHSRRIRIKLTVQGEAMTNTIIQQTFEVEYIVIAMQCPDCARSYTTNTWRATVQIRQKVPHKRTFLFLEQLILKHNAHVDTISISEAKDGLDFFYAQKNHAVKMIDFLNAVVPIKHKKSEELISQDTHTGASTYKFSYSVEIVPICKDDLVVLPKKLAKSMGNISQFVLCSKISNTVQFMDPTTLQTADLSPSVYWRAPFNALADVTQLVEFIVLDVDSTGISRGNRVLADITVARTSDLGVNDQVYYVRSHLGGICHAGDSVMGYFIANSNYNSDLFDGLNIDYVPDVVLVKKLYQRKSKKSRHWKLKRMAKEHKDIDASLDYNSRAQKQEMERAEKDYELFLQELEEDAELRQSVNLYKNREANVPPEEHEMDEDEDEDAPQINIDELLDELDEMTLEDGVENTPVESQQ
binds	Nog1 on the pre-60S particle (protein, UniProt Q02892 1-647) MQLSWKDIPTVAPANDLLDIVLNRTQRKTPTVIRPGFKITRIRAFYMRKVKYTGEGFVEKFEDILKGFPNINDVHPFHRDLMDTLYEKNHYKISLAAISRAKSLVEQVARDYVRLLKFGQSLFQCKQLKRAALGRMATIVKKLRDPLAYLEQVRQHIGRLPSIDPNTRTLLICGYPNVGKSSFLRCITKSDVDVQPYAFTTKSLYVGHFDYKYLRFQAIDTPGILDRPTEEMNNIEMQSIYAIAHLRSCVLYFMDLSEQCGFTIEAQVKLFHSIKPLFANKSVMVVINKTDIIRPEDLDEERAQLLESVKEVPGVEIMTSSCQLEENVMEVRNKACEKLLASRIENKLKSQSRINNVLNKIHVAQPQARDDVKRTPFIPESVKNLKKYDPEDPNRRKLARDIEAENGGAGVFNVNLKDKYLLEDDEWKNDIMPEILDGKNVYDFLDPEIAAKLQALEEEEEKLENEGFYNSDDEEEIYDGFEASEVDDIKEKAAWIRNRQKTMIAEARNRKSLKNKAIMPRSKLTKSFGKMEEHMSTLGHDMSALQDKQNRAARKNRYVERGSDVVFGDQDALTASTENGVKLRQTDRLLDGVADGSMRSKADRMAKMERRERNRHAKQGESDRHNAVSLSKHLFSGKRGVGKTDFR
binds	Mrt4 on the pre-60S particle (protein, UniProt P33201 1-236) MPRSKRSKLVTLAQTDKKGRENKERIFDEVREALDTYRYVWVLHLDDVRTPVLQEIRTSWAGSKLIMGKRKVLQKALGEKREEEYKENLYQLSKLCSGVTGLLFTDEDVNTVKEYFKSYVRSDYSRPNTKAPLTFTIPEGIVYSRGGQIPAEEDVPMIHSLEPTMRNKFEIPTKIKAGKITIDSPYLVCTEGEKLDVRQALILKQFGIAASEFKVKVSAYYDNDSSTVESTNINME
